Experimental data published in PubChem BioAssay AID602476 (National Center for Advancing Translational Sciences (NCATS), 2012).
Inconclusive results, whose numbers are uncertain, are shown with a selection of clear calls. Potencies of inconclusive entries are doubtful fits and often do not repeat. Active and inactive are the calls of the source. The call rests on the fitted dose curve; in most records, active means well fitted activation curve with a large enough effect; inconclusive means small, poorly fitted or top-dose-only effect; inactive means flat fitted curve, though single readings scatter.

Experiment: FLuc inhibitory activity for the follow-up compounds in a cell-based translational read-through assay
Conditions: GripTite 293 FLucUGA read-through, luminescence, 48 h; series mostly up to 38.3 µM
Source text: NCGC Assay Overview: Firefly (Photinus pyralis) luciferase is one of the most commonly used transcriptional reporters. It is considered one of the more dynamically responsive reporters - that is, responsive to changes in reporter transcription - as it requires no post-translational modifications and is enzymatically active directly after protein synthesis (Wood, 1998). With no endogenous expression in mammalian cells and without the requirement of external excitation, it offers very little background signal, thus generally providing excellent signal to background for most assays. Previous profiling work to determine the prevalence of compounds that affect FLuc enzymatic activity (PubChem AID 411) identified that ~3% of the MLSMR library (then at ~72K) inhibited FLuc (Auld et al., 2008). […] Of the compounds identified in this profile that inhibited FLuc, 151 compounds were selected for further analysis, in an effort to better understand their mode of inhibiting FLuc. The assay described here was to determine the activity of the compounds in a cell-based firefly luciferase reporter gene assay originally designed to identify compounds that enchanced translational read-through of a FLuc cDNA that contained a premature stop codon (Auld et al., 2009; Auld et al., 2010). Compounds that enhance translational read-through or compounds that stabilize FLuc intracellularly are identified as active compounds in the assay.
NCGC Assay Protocol Summary: Reagents: Transient transfection of FlucUGA construct: TransFast Transfection Reagent (Promega #E2431); FLucUGA construct (refer to Auld et al., 2009) #GripTite 293 MSR Cell Line (Invitrogen #R795-07) #Complete growth media: DMEM (Invitrogen #11965), 10% HIFBS, 0.1mM MEM NEAA, 5mL/L pen-strep (of 5000U/mL stock), 600ug/mL Geneticin #Assay media: DMEM without phenol red (Invitrogen #21063), 5% charcoal-stripped HIFBS (Hyclone #SH30071.03), 0.1mM MEM NEAA In-house detection reagent: 300mM Tris-HCl, 300mM Trizma base, 300mM MgCl, 1% Triton-X100, 5mM DTT, 500uM Coenzyme A trilithium salt (Sigma #C3019),450uM ATP (Sigma #A7699), 1mM D-luciferin sodium salt monohydrate (Biosynth #L8240) Control compounds used were two known firefly luciferase inhibitors (3-(5-(3-chlorophenyl)-1,2,4-oxadiazol-3-yl)benzoic acid and 5-(2-fluorophenyl)-3-phenyl-1,2,4-oxadiazole), and DMSO. Assay Summary: Transient transfection of FlucUGA construct: Day 1: GripTite cells were plated in T175 flasks at a density of 1.75 x 10^7 cells/T175 flask in complete growth media without Geneticin and allowed to grow ON in a 37 degrees Celsius incubator. Day 2: Cells in T175 flask were transfected - with 10ug of DNA and 30uL Transfast in 12mL complete growth media without serum and without Geneticin for 4 hours at 37 degrees Celsius. After incubation, cells were trypsinized, spun down, and resuspended to a concentration of 3.3 x 10^5 cells/mL in assay media. 6uL of cells in assay buffer were dispensed at 2000cells/well (3.3 x 10^5 cells/mL) into Greiner solid-white TC-treated 1536-well plates using a Multidrop Combi (Thermo Fisher Scientific). Plates were incubated for one hour at 37 degree Celsius, 95% humidity, 5% CO2. These assay plates were then treated with 23nL of compound or DMSO using a Kalypsys pin tool, which allows for delivery of a 12-point titration of each compound to the assay plate, with a final compound concentration ranging from approximately ~38uM to 0.2nM. Assay plates were then incubated for 48 hours. After incubation, plates were washed three times with DPBS (7uL/well). After the third wash, 6uL of DPBS was added to each well. 3uL of 3X luciferase detection reagent was then added to each well using a flying reagent dispenser (FRD). After a 15 minute incubation to allow for cell lysis, luciferase activity was measured using a ViewLux CCD imager (PerkinElmer), with an average exposure time of 2-12 seconds.

| Compound | Potency |
| --- | --- |
| Cc1ccc(C(=O)Nc2cccc(C(=O)O)c2)cc1S(=O)(=O)N1CCOCC1 | inconclusive: 7.98 µM [activator, full curve, poor fit] |
| COc1ccc2nc(NC(=O)C3CCN(S(=O)(=O)c4cccs4)CC3)sc2c1 | inconclusive: 8.95 µM [activator, single point] |
| COc1ccc(CC(=O)Nc2cccc(C(=O)Nc3ccccc3C(=O)O)c2)cc1OC | inconclusive: 5.65 µM [activator, partial curve, poor fit] |
| Cc1ccc2nc(-c3ccc(NC(=O)CN4CCN(C(=O)c5ccco5)CC4)cc3)sc2c1 | inconclusive: 15.9 µM [activator, partial curve, poor fit] |
| Cc1ccc2sc(-c3ccc(NC(=O)c4cc(-n5cnnc5)ccc4Cl)cc3)nc2c1 | inconclusive: 6.34 µM [activator, full curve] |
| CCOc1ccc2nc(NC(=O)c3ccoc3C)sc2c1 | active: 1.79 µM |
| Cc1ccc(C(=O)O/N=C(\N)c2ccccn2)c(Cl)c1 | inconclusive: 0.225 µM [activator, full curve, poor fit] |
| CC(C)c1ccc(-c2nc3ccccc3s2)cc1 | inconclusive: 0.252 µM [activator, full curve] |
| Cc1c(NC(=O)c2cc(-n3cnnc3)ccc2Cl)cccc1-c1nc2ccccc2s1 | inconclusive: 2.83 µM [activator, full curve] |
| O=C(Cc1ccc(Cl)cc1)Nc1cccc(C(=O)Nc2ccccc2C(=O)O)c1 | inactive |
| Cc1ccc2sc(-c3ccc(N)cc3)nc2c1 | active: 1.59 µM |
| Nc1cccc(-c2nc3ccc(N)cc3s2)c1 | inconclusive: 7.11 µM [activator, partial curve] |
| COc1ccc(-c2cccc(C(=O)Nc3cccc(C(=O)O)c3)c2)cc1 | active: 11.3 µM |
| CCc1noc(C)c1C(=O)Nc1nc2ccc(OC)cc2s1 | inconclusive: 25.2 µM [activator, single point] |
| COc1ccc(-c2nc3ccccc3s2)cc1NC(=O)c1ccc(F)cc1 | inactive |
| COc1ccc(C(=O)Nc2ccccc2C(=O)Nc2ccc(C(=O)O)cc2)cc1 | active: 25.2 µM |
| CCOc1ccc(C(=O)Nc2ccccc2C(=O)O)cc1 | inconclusive: 2 µM [activator, full curve] |
| O=C(Nc1ccccc1C(=O)O)c1ccc(NC(=O)C2CCCCC2)cc1 | inactive |
| CN(C)c1cccc(C(=O)Nc2ccc(-c3nc4ccccc4s3)cc2)c1 | inconclusive: 0.711 µM [activator, full curve] |
| O=C(O)c1cccc(NC(=O)c2cccc(NC(=O)C3CCCO3)c2)c1 (stereo not given) | inactive |

| Compound | Potency |
| --- | --- |
| O=C(Nc1ccccc1C(=O)Nc1ccccc1C(=O)O)c1ccccc1 | inconclusive: 0.565 µM [activator, full curve] |
| COc1ccc(C(=O)Nc2ccccc2C(=O)Nc2ccccc2C(=O)O)cc1 | inconclusive: 2.25 µM [activator, full curve] |
| O=C(Nc1cccc(-c2nc3ccccc3s2)c1)C1=COCCO1 | inconclusive: 15.9 µM [activator, partial curve, poor fit] |
| COc1ccc(C(=O)Nc2cccc(C(=O)O)c2)cc1S(=O)(=O)N1CCCC1 | inconclusive: 28.3 µM [activator, single point] |
| COc1cc(OC)cc(-c2nc3ccccc3s2)c1 | inconclusive: 11.3 µM [activator, partial curve] |
| O=C(Nc1ccccc1C(=O)O)c1cc(S(=O)(=O)Nc2ccccc2)ccc1Cl | inactive |
| O=C(Nc1ccccc1C(=O)O)c1cccc(C(=O)Nc2ccccc2C(=O)O)c1 | inactive |
| O=C(Nc1ccccc1C(=O)O)c1ccc(Cl)c(S(=O)(=O)N2CCOCC2)c1 | inactive |
| CC(=O)Nc1cccc(-c2nc3ccccc3s2)c1C | inconclusive: 28.3 µM [activator, partial curve, poor fit] |
| Cc1c(NC(=O)c2cccs2)cccc1-c1nc2ccccc2s1 | inconclusive: 0.0711 µM [activator, full curve, poor fit] |
| O=C(Nc1ccccc1C(=O)O)c1cccc(S(=O)(=O)N2CCCC2)c1 | inactive |
| Cc1c(NC(=O)C(C)(C)C)cccc1-c1nc2ccccc2s1 | inconclusive: 12.6 µM [activator, partial curve] |
| O=C(Nc1c(Cl)cc(Cl)cc1-c1nc2ccccc2s1)c1ccc(Br)o1 | active: 3.18 µM |
| Cc1ccccc1C(=O)Nc1cccc(C(=O)Nc2ccccc2C(=O)O)c1 | inconclusive: 2.25 µM [activator, full curve] |
| Cn1c(N/N=C/c2cc3ccccc3nc2Cl)nc2ccccc21 | inconclusive: 0.252 µM [activator, full curve] |
| CC(=O)Oc1ccc(C(=O)Nc2ccccc2C(=O)Nc2cccc(C(=O)O)c2)cc1 | inconclusive: 0.2 µM [activator, full curve] |
| COc1ccc(C(=O)Nc2ccccc2C(=O)N/N=C/c2ccc(O)c(OC)c2)cc1 | inconclusive: 1.26 µM [activator, full curve] |
| O=C(Nc1ccccc1-c1nc2ccccc2s1)c1cccnc1 | inactive |
| Cc1ccc(C(=O)Nc2cccc(C(=O)O)c2)cc1S(=O)(=O)N1CCCC1 | active: 2 µM |
| Cc1c(NS(C)(=O)=O)cccc1-c1nc2ccccc2s1 | inconclusive: 17.9 µM [activator, partial curve, poor fit] |

11 successive records from above, for reference:

| Compound | Potency |
| --- | --- |
| COc1cc(OC)cc(-c2nc3ccccc3s2)c1 | inconclusive: 11.3 µM [activator, partial curve] |
| O=C(Nc1ccccc1C(=O)O)c1cc(S(=O)(=O)Nc2ccccc2)ccc1Cl | inactive |
| O=C(Nc1ccccc1C(=O)O)c1cccc(C(=O)Nc2ccccc2C(=O)O)c1 | inactive |
| O=C(Nc1ccccc1C(=O)O)c1ccc(Cl)c(S(=O)(=O)N2CCOCC2)c1 | inactive |
| CC(=O)Nc1cccc(-c2nc3ccccc3s2)c1C | inconclusive: 28.3 µM [activator, partial curve, poor fit] |
| Cc1c(NC(=O)c2cccs2)cccc1-c1nc2ccccc2s1 | inconclusive: 0.0711 µM [activator, full curve, poor fit] |
| O=C(Nc1ccccc1C(=O)O)c1cccc(S(=O)(=O)N2CCCC2)c1 | inactive |
| Cc1c(NC(=O)C(C)(C)C)cccc1-c1nc2ccccc2s1 | inconclusive: 12.6 µM [activator, partial curve] |
| O=C(Nc1c(Cl)cc(Cl)cc1-c1nc2ccccc2s1)c1ccc(Br)o1 | active: 3.18 µM |
| Cc1ccccc1C(=O)Nc1cccc(C(=O)Nc2ccccc2C(=O)O)c1 | inconclusive: 2.25 µM [activator, full curve] |
| Cn1c(N/N=C/c2cc3ccccc3nc2Cl)nc2ccccc21 | inconclusive: 0.252 µM [activator, full curve] |
